In PMC4526233:
Substitutions are numbered along the chain they refer to. No constants are given. Whether binding was seen depends on the method and setting. In cells and extracts the contact can be indirect. For some assays here: Binding can be weak; no strength is given. Sequences can lack the tags named with a protein.

What was measured:
[1] = molecular target: T1, FLAG-tagged H136Q B14 (F-B14 H136Q) (UniProt Q8TBM8); test: co-IP; CV-1 cells expressing FLAG-tagged B14 constructs cross-linked with 2 mM DSP, lysed in 1% Triton X-100 in TSEp buffer; anti-FLAG agarose, 2 h at 4°C; immunoblot
T1 sequence: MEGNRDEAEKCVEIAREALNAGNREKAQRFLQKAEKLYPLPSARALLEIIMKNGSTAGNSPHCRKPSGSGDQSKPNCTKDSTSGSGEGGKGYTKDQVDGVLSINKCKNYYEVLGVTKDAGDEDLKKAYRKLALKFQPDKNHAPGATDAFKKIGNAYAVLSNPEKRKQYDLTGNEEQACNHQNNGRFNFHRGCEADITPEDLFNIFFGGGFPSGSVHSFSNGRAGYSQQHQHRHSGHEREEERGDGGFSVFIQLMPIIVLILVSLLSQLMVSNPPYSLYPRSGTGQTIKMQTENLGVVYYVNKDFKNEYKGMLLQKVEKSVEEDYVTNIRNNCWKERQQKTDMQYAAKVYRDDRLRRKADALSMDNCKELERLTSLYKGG

FLAG-tagged B14 (F-B14) = molecular target: T2, FLAG-tagged B14 (F-B14) (UniProt Q8TBM8); test: as above
T2 sequence: T1 sequence with Q136H

[2] = molecular target: T3, S-tagged HspBP1 (HspBP1-S) (human) (UniProt Q9NZL4); test: pull-down; S-tagged proteins affinity purified on S tag protein-conjugated agarose from CV-1 whole cell extract (TSEp buffer with 0.2% digitonin), 2 h at 4°C; immunoblot; cells uninfected (Fig 1H) or infected with SV40 MOI ~10 for 2, 8 or 12 h (Fig 5B, 5C)
T3 sequence: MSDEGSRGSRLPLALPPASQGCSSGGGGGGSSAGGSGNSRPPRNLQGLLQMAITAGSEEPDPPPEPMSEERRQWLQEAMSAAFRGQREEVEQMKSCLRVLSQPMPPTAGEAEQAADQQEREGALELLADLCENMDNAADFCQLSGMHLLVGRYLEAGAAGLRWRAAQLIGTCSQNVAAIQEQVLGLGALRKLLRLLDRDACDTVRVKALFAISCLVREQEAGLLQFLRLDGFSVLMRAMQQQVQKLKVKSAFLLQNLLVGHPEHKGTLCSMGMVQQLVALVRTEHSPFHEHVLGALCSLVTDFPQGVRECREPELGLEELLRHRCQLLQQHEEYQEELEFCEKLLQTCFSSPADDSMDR

binding [1] | binding (FLAG-tagged B14 (F-B14)) | binding [2] | Substance
no binding | binds | binds | Hsc70 (endogenous, CV-1 cells) (simian (endogenous in CV-1))
no binding | binds |  | Hsp105 (endogenous, CV-1 cells) (simian (endogenous in CV-1))
